The whole screen tested about 580,000 compounds, of which about 6,100 (1.1%) were called active. The inconclusive results got no clear call from the source; some entries with a clear call stand among them for comparison. The call rests on the fitted dose curve; in most records, active means well fitted inhibition curve with a large enough effect; inconclusive means small, poorly fitted or top-dose-only effect, or another doubt; inactive means no such curve, though single readings can be large or run the other way. A potency beside an inconclusive call is a rough fit, not a confirmed value.
The molecules below were run against Polyunsaturated fatty acid lipoxygenase ALOX12 (Homo sapiens) (UniProt P18054) (assay: Primary qHTS assay for inhibitors of human arachidonate 12S-lipoxygenase (ALOX12): Round 2). Conditions: purified 12hLO, xylenol orange hydroperoxide absorbance; series mostly up to 108 µM.
Outline: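 Purified human 12hLO at 150 nM in 25 mM Hepes, 0.01% Triton X-100, pH 7.0, preincubated 15 min at room temperature with compound. Reaction started with 40 uM arachidonic acid, 30 min at room temperature. Hydroperoxide measured by Fe-xylenol orange, 573/405 nm absorbance ratio.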
Potency means the concentration at half of the fitted maximal effect.

Amino acid sequences for entries named in this document (tags omitted). A change or cut given only in a name is not applied to a line headed by its entry.
UniProt P18054: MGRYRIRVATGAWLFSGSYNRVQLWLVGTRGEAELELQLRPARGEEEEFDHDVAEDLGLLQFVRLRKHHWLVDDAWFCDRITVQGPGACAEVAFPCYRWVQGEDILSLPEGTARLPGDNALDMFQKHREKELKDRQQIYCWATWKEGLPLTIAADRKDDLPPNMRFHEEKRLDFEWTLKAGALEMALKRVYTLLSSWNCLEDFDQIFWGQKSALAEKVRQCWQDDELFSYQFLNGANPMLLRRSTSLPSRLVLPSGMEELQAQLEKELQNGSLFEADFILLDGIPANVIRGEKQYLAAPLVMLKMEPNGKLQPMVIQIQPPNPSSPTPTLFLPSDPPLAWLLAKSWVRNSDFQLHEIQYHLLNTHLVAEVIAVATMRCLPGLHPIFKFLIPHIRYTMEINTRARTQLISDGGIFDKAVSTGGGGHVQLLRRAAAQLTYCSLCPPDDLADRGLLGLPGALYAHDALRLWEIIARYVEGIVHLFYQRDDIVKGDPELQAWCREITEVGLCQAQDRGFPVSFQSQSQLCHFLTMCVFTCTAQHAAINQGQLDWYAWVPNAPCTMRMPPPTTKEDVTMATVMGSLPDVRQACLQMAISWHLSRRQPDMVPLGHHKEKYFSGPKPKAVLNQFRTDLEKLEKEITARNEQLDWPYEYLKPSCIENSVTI

SMILES | Potency
COc1ccc2cc(C(=O)N3CCN(S(=O)(=O)c4ccc(C)cc4C)CC3)c(C)nc2c1 | inactive
O=C(CN1CC[n+]2c(-c3cccs3)csc21)c1ccc(Br)cc1 | inactive
CC(CCc1ccccc1)NCCNC(=O)c1ccccc1 (stereo not drawn) | inconclusive: 0.447 µM [inhibitor, full curve, poor fit]
COc1cc(-c2ccccc2)nc(N)n1 | inactive
CCCCn1c(N)c(S(=O)(=O)c2ccc(C)cc2)c2nc3ccccc3nc21 | inconclusive: 44.7 µM [inhibitor, partial curve, poor fit]
COc1ccccc1N(CC(=O)Nc1ccc2c(c1)OCO2)S(=O)(=O)c1ccccc1 | inconclusive: 44.7 µM [inhibitor, partial curve, poor fit]
COc1cc(NC(=O)CCc2c(C)nc3cc(-c4ccccc4)nn3c2C)cc(OC)c1OC | inactive
CCOc1cc(NC(=S)Nc2ccccc2)c(OCC)cc1NC(=O)c1ccccc1 | inconclusive: 25.1 µM [inhibitor, partial curve, poor fit]
CC(C)(C)NC(=O)CN(C(=O)CS(=O)CC(=O)Nc1ccc(F)cc1)c1ccccc1 (stereo not drawn) | inconclusive: 4.47 µM [inhibitor, full curve, poor fit]
N#Cc1cccc(/C=C/C(=O)c2ccsc2)c1 | inactive
Cc1ccc2c(c1)N(CCCC(=O)NCCCN1CCCC1=O)C(=O)CO2 | inconclusive: 112 µM [inhibitor, single point]
CC(C)(CC(=O)O)CC(=O)N1CCCN(c2nc3ccc(Cl)cc3s2)CC1 | inconclusive: 141 µM [inhibitor, single point]
C=CCn1c(SCc2c(F)cccc2Cl)nnc1-c1ccco1 | inactive
COc1cc(CN2CCCC(C(=O)c3ccc4c5c(cccc35)CC4)C2)cc(OC)c1O (stereo not drawn) | inconclusive: 35.5 µM [inhibitor, partial curve]
CC(NC(=O)c1cc(-c2ccncc2)nc2ccccc12)c1ccco1 (stereo not drawn) | inconclusive: 100 µM [inhibitor, single point]
Cc1oc2ncnc(N3CCCCC3)c2c1C(=O)N1CCN(c2cccc(Cl)c2)CC1 | inconclusive: 158 µM [inhibitor, partial curve, poor fit]
Cc1ccc(-n2c(C)nnc2SCC(=O)Nc2c(C#N)c(C)c(C)n2Cc2ccccc2)cc1 | inconclusive: 50.1 µM [inhibitor, single point]
Cc1ccc(C(=O)C2C(c3ccc(-c4ccccc4[N+](=O)[O-])o3)NC(=O)NC2(O)C(F)(F)F)cc1 (stereo not drawn) | inconclusive: 100 µM [inhibitor, single point]
CCOC(=O)N1CCN(CC(=O)n2c(C)c(C)c3ccccc32)CC1 | inconclusive: 3.98 µM [inhibitor, full curve, poor fit]
COc1ccc(-c2ccc3c(c2)[C@@H]2C[C@H](N(C)C(=O)C(C)(C)C)[C@H]([C@H](C)O)C(=O)N2CC3)cc1 | active: 11.2 µM
Cc1[nH]c2ccccc2c1C(=O)C(=O)NCC1CCC1 | inconclusive: 89.1 µM [inhibitor, single point]
Cc1ccc(NC(=O)CCN2CCN(CCO)CC2)cc1Br | inconclusive: 31.6 µM [inhibitor, single point]

As entered above.
In Potency, `COc1cc(NC(=O)CCc2c(C)nc3cc(-c4ccccc4)nn3c2C)cc(OC)c1OC` has inactive
In Potency, `CC(CCc1ccccc1)NCCNC(=O)c1ccccc1` (stereo not drawn) has inconclusive: 0.447 µM [inhibitor, full curve, poor fit]

Additional records:

SMILES | Potency
COC(=O)c1cc(OC)cc(O)c1C(=O)c1c(O)cc(C)cc1O | inconclusive: 112 µM [inhibitor, single point]
COc1cc(/C=N/NC(=O)c2cccc(S(=O)(=O)N3CCCC3)c2)ccc1O | inactive
COc1ccc(-n2c(SC(C(=O)N3CCCC3)c3ccccc3)nnc2-c2ccncc2)cc1 (stereo not drawn) | inconclusive: 39.8 µM [inhibitor, partial curve, poor fit]
COc1ccc(CN2CCSCC2)c(OC)c1C | inconclusive: 3.98 µM [inhibitor, full curve, poor fit]
CN1CCC(N(C)CC(NC(=O)c2cccc(C(F)(F)F)c2)c2ccccc2)CC1 (stereo not drawn) | inconclusive: 39.8 µM [inhibitor, partial curve]
Nc1ncnc2[nH]c(=S)[nH]c12 | inconclusive: 35.5 µM [inhibitor, partial curve, poor fit]
Cc1c(Cl)cccc1NC(=S)NCCC(c1ccccc1)c1ccccc1 | active: 25.1 µM
COc1ccc(Cn2c(=S)[nH]c3ccccc32)cc1 | active: 44.7 µM
CC1(C)OC(=O)N2CCc3ccccc3C21C (stereo not drawn) | inconclusive: 50.1 µM [inhibitor, partial curve, poor fit]
Cc1sc(-c2nc(-c3cccc(F)c3)no2)cc1S(=O)(=O)N1CCC(C)CC1 | inactive
Nn1c(SCc2ncc(-c3ccccc3)o2)nnc1-c1ccccc1F | active: 6.31 µM
COc1ccccc1C(O)(C(=O)NNc1ccccc1C)c1ccccc1OC | inconclusive: 39.8 µM [inhibitor, partial curve]
COc1ccc(C(=O)OCC(=O)Nc2cc(S(=O)(=O)N3CCOCC3)ccc2N2CCCC2)cc1 | inconclusive: 50.1 µM [inhibitor, partial curve, poor fit]
CCc1cccc(C)c1NC(=O)COC(=O)Cn1c(C)csc1=O | inconclusive: 1.78 µM [inhibitor, full curve, poor fit]
CCC(C)Nc1nc(N)c([N+](=O)[O-])c(N2CCCCCC2)n1 (stereo not drawn) | inactive
CC(C)C1CN(C(=O)CCn2ccc(=O)[nH]c2=O)CCC(=O)N1CC1CC1 (stereo not drawn) | inactive
CCOc1cccc(CNC(=O)c2noc(-c3ccc(C)cc3)n2)c1 | inactive
NC(=O)c1c(NC(=O)CSc2nnc(-c3ccco3)n2-c2ccccc2)sc2c1CCC2 | inconclusive: 39.8 µM [inhibitor, partial curve]
COC(=O)c1cc(-c2ccc(OC)c(OC)c2)nc2onc(C(C)C)c12 | inconclusive: 7.08 µM [inhibitor, full curve, poor fit]
Cn1c(=O)c2c(ncn2CC(=O)c2ccc3ccccc3c2)n(C)c1=O | inconclusive: 44.7 µM [inhibitor, single point]
CCOc1ccccc1N1CCN(c2nc(N)c(C#N)c(CC#N)c2C#N)CC1 | inactive
